The other results are listed elsewhere or left out.
B1: il10ra_site1_sap_14_mot_HHH_b1_03314_af2_000000278_0001_42_55_H_._HHH_b1_00918_0001_0000700020_0000001_0_0001 (protein)
chain: SSSSDEEEEELERLLEQLREAFKDGDTQLVYELLERVIKLASELGDQEVLREVMELLRRLFSSSS
B2: il10ra_site1_sap_28_mot_HHH_b1_07932_000000020_0001_21_38_H_._HHH_b1_03595_0001_0000800045_0000001_0_0001 (protein)
chain: SSSNRAARFLAEQALKAVEILLKQGDHELAEHAFENLERLLEQVGDPKLEEILEEIEKLLRSSSS
B3: il10ra_site1_normal_mot_HHH_b2_07579_000000275_0001_1_19_H_._HHH_b2_05702_af2_0001_0000700053_0000002_0 (protein)
chain: SSSSSDELEEIIELIRKAAELAQKGDPRAEEVAEEALELAEELGNEVAAWAIRHLLRDLTSSSSS
B4: il10ra_site1_sap_27_mot_HHH_b2_07144_000000289_0001_1_18_H_._HHH_b2_07112_0001_0000200020_0000001_0_0001 (protein)
chain: SSSSDREEVEELLREAEELLEEGNEEEALRVVLRAVRLAYQTGDPELLRALWRLIEERKRKSSSS
B5: il10ra_site1_normal_mot_HHH_b1_05021_af2_000000167_0001_42_56_H_._HHH_b1_05676_af2_0001_0000100002_0000001_0 (protein)
chain: SSSSDELEEVFRLLERASQLDQEGDHEEARRLLEEARELAEELGNELLRWQIEWLLERLDSSSSS
B6: il10ra_site1_sap_16_mot_HHH_b2_07144_000000289_0001_1_18_H_._HHH_b1_08718_0001_0000100012_0000001_0_0001 (protein)
chain: SSSSDAEFLVRQALKAVRILIERGDPEEAQRALEIAKRLAEQANNEELEELIEEVERQLHSSSSS
B7: il10ra_site1_normal_mot_HHH_b1_03859_af2_000000004_0001_44_57_H_._HHH_b2_03997_0001_0000200016_0000001_0_af2pred_0001 (protein)
chain: SSSSSSDLEKKLELSIRFAKSLSDPEAARLLLRQAADLARRANNEELLEEIERLLEELGSSSSSS
B8: il10ra_site1_sap_17_mot_HHH_b1_06789_af2_000000041_0001_1_20_H_._HHH_b2_03987_af2_0001_0000400007_0000001_0_0001 (protein)
chain: SSSSSDDEEYLEMALRFLEWALREGNEESFRSMARAIKQVAERLGDPEVQKRVEELEEEISSSSS
B9: il10ra_site1_sap_22_mot_HHH_b2_02262_af2_000000007_0001_40_53_H_._HHH_b2_07530_af2_0001_0000100002_0000001_0_0001 (protein)
chain: SSSSDEWFEEVKEILQKVVELEREGNPEEAQEILEEAIEKFEEENNHIAVQQLRFLLKLISSSSS
B10: il10ra_site1_normal_mot_HHH_b2_07521_000000141_0001_20_37_H_._HHH_b1_02532_0001_0000200012_0000001_0_af2pred_dldesign_0_af2pred (protein)
chain: SSSSSNEVEAVRLQLRYARFLREAGAPEEARYVLENALKLAKEVKDPELVAEIEALLAELSSSSS
B11: il10ra_site1_normal_mot_HHH_b2_02337_000000026_0001_38_52_H_._HHH_b1_06806_0001_0000400015_0000001_1 (protein)
chain: SSSSSSSDEEEVRELLEEAEEIENPEELARVLQEATHFALRAQNQELLREVWEVVKRLSSSSSSS
B12: il10ra_site1_sap_22_mot_HHH_b2_07784_af2_000000103_0001_19_36_H_._HHH_b1_05257_af2_0001_0000400005_0000001_0_0001_af2pred_0001 (protein)
chain: SRLEAIARAIRFLAERAGVPHVEVTVENGELHVTVEGNDQAARELKLAARWLARAANVPLEVESE
B13: il10ra_site1_sap_13_mot_HHH_b2_04592_000000276_0001_41_54_H_._2e374b53e75dc1c2421ca5e7055e643f_0001_0001_0000200012_0000001_0_0001 (protein)
chain: SSSSSDDEEYLKLALRFLEWALRVGDEESFKTMARAIKSVAEKLGDPEVQERVEELHEEISSSSS
B14: il10ra_site1_sap_19_mot_HHH_b1_02665_000000293_0001_1_18_H_._HHH_b1_02803_0001_0000500042_0000001_0_0001 (protein)
chain: SSSSSAEEAQEVQRILEEAAELAKRDPEEARRLVEELLEELEELGDRLMIIQIRFLLKDLRSSSS
B15: il10ra_site1_normal_mot_HHH_b1_06789_af2_000000041_0001_1_20_H_._HHH_b2_06015_af2_0001_0000300012_0000001_0_af2pred_dldesign_0_af2pred (protein)
chain: SSSSAGRELTEQAIRAAEILLEAGDLEEAQKALDIAEKLAKQLGDEELLKEIEELKKKLESSSSS
B16: il10ra_site1_sap_18_mot_HHH_b2_07086_af2_000000231_0001_20_36_H_._HHH_b1_05227_af2_0001_0000200009_0000001_0_0001 (protein)
chain: SSSSSEEDQELLELVQEAFHLLLRGDEEEARRLLEEALEIAREAGNERVLRMIESMLKTVSSSSS
B17: il10ra_site1_sap_13_mot_HHH_b1_00267_af2_000000050_0001_38_52_H_._HHH_b1_02387_af2_0001_0000900039_0000001_0_0001 (protein)
chain: SSSSSSDIAELVAEAVRLAIQRNDEEVFRELYELFREYIEKGDPRIEEEVEELLEELRSSSSSSS
B18: il10ra_site1_sap_16_mot_HHH_b2_05343_000000235_0001_19_35_H_._HHH_b2_03259_af2_0001_0000700044_0000001_0_0001 (protein)
chain: SSSSDATEWLVRQALRAVELLAKQGDPEEAEKALELARHLAEAGNDPEAQRLVEELEEELSSSSS
B19: il10ra_site1_normal_mot_HHH_b2_06926_000000122_0001_1_20_H_._HHH_b2_01013_af2_0001_0000100006_0000002_0 (protein)
chain: SSSSSTLEEQLEILKRYLELLLENNDEEVLKALLRQAEEVARRLGDEELEELVEEIRRELSSSSS
B20: il10ra_site1_normal_mot_HHH_b1_06804_000000054_0001_40_54_H_._HHH_b1_06242_af2_0002_0000600032_0000001_0 (protein)
chain: SSSSDEEEELEELLEEIKKLLEEGDPEEALRLIQEALQLAFQLRDEEALQILYELARLASSSSSS
B21: il10ra_site1_sap_19_mot_HHH_b2_07521_000000141_0001_20_37_H_._HHH_b1_07537_af2_0001_0000400008_0000001_0_0001 (protein)
chain: SSSSSDEERLEELLEELKELLEEGDRERFLRVALEVLRLAFQSSDEEALQAVWRLVKKWGSSSSS
B22: il10ra_site1_normal_mot_HHH_b2_03220_af2_000000223_0001_23_40_H_._HHH_b2_07778_af2_0001_0000300008_0000001_0_af2pred_0001 (protein)
chain: SSSSSSSEREEALRLIREALHIDDKEEAQELLEEARELAEEANNPVIRRSIEFLLSQLSSSSSSS
B23: il10ra_site1_normal_mot_HHH_b2_02053_af2_000000006_0001_3_19_H_._HHH_b1_04837_af2_0001_0000900044_0000001_0_af2pred_0001 (protein)
chain: SSSSSELSERAIELIRRILELRHQGDPEEARELLEELQEVVEESGDPLFHFLLEILEKELSSSSS
B24: il10ra_site1_sap_20_mot_HHH_b2_02337_000000026_0001_38_52_H_._HHH_b2_03345_0001_0000100009_0000001_1_0001 (protein)
chain: SSSTEEEIKELLEELKELIERGDEEEVAQLAAEIMRAIYELGDEELAEELLRLLAEFLERQSSSS
B25: il10ra_site1_normal_mot_HHH_b1_08411_af2_000000053_0001_1_20_H_._HHH_b2_02982_0001_0000300041_0000002_0 (protein)
chain: SSSSQEAFELTREAIEEAKELFEEGNREEAEELLKEVLEEVRELGNFAAEFSLEHLLRVLSSSSS
B26: il10ra_site1_sap_16_mot_HHH_b1_05021_af2_000000167_0001_42_56_H_._HHH_b2_06441_af2_0001_0000200015_0000002_0_0001 (protein)
chain: SSSSSSDVEELLEEARELAEEGDPRAIEVLQRALQHAYRLGDEELLREIWELVRRIANSSSSSSS
B27: il10ra_site1_normal_mot_HHH_b2_00943_af2_000000149_0001_1_17_H_._HHH_b1_07323_0001_0000500032_0000001_0_af2pred_0001 (protein)
chain: SSSDVEEVLELAEEALRLAEERNDEAAQFTLRVTLKTLELTGDPHAERILRRLAETLLKELRSSS
B28: il10ra_site1_normal_mot_HHH_b1_05879_000000258_0001_1_19_H_._HHH_b1_03479_0001_0000400033_0000001_0 (protein)
chain: SSSSDTLEWSVRFALREAERLYELGDPERAEELLRRLVELLREAGNEELVELVERVLEELNSSSS
B29: il10ra_site1_sap_24_mot_HHH_b1_04275_000000001_0001_22_39_H_._HHH_b1_02595_af2_0001_0000100006_0000001_0_0001 (protein)
chain: SSSSDNEEVFELLRRALELLAEGNPEEAEKLLEEARELAEKAGSRLFEINIEFILEDIEESSSSS
B30: il10ra_site1_sap_25_mot_HHH_b1_06912_af2_000000235_0001_1_15_H_._HHH_b1_08405_0001_0000400043_0000001_0_0001 (protein)
chain: SSSSTLEELVEAAIRIAHQALEAGNPRLARHLLEALLEALERLGNPELVEEVEKLLEEVRNSSSS
B31: il10ra_site1_sap_18_mot_HHH_b1_02766_af2_000000078_0001_42_56_H_._d50532fa1587236c3ce0ee4f17a021f6_0001_1_0001_0000300015_0000001_0_0001 (protein)
chain: SSSSSDETQELYELSKRIVELLHEGNPEEAEELLEQLRRLAEELNNWTIRAIVEFLEKQLSSSSS
B32: il10ra_site1_normal_mot_HHH_b1_07380_000000129_0001_1_20_H_._HHH_b1_04763_0001_0000400043_0000001_0 (protein)
chain: SSSSTEEHHELYRISREIAELEAEGNPEEARRLLEQLEELAEELNDFIVRFVVRLLEESLSSSSS
B33: il10ra_site1_sap_26_mot_HHH_b2_07006_000000108_0001_1_19_H_._HHH_b2_00401_0001_0000100003_0000001_0_0001 (protein)
chain: SSSSSDEELKEEVEELEEQARHIEDPHEFARILARAVQLAYRLGDAELLHEIWELIHKARSSSSS
B34: il10ra_site1_sap_20_mot_HHH_b2_05343_000000235_0001_19_35_H_._HHH_b1_06694_af2_0001_0000100002_0000001_0_0001_af2pred_0001 (protein)
chain: SKLEEVEELLEELAKTDIVAVSLLHLLRADKKAGVPPEEILERLQEIAKLADTPFARELLKLLEK
B35: il10ra_site1_sap_25_mot_HHH_b1_07590_af2_000000040_0001_1_19_H_._HHH_b1_00813_0001_0000100006_0000002_0_0001 (protein)
chain: SSSSDVEEEVERLLEEAEELRERGNPEEARELMLEALRLAIQAQNKELLRLVWEVVRRLASSSSS
B36: il10ra_site1_normal_mot_HHH_b2_03220_af2_000000223_0001_23_40_H_._HHH_b1_01139_af2_0001_0000100001_0000001_0_af2pred_0001 (protein)
chain: SSSSTEESERVYEILREALEIEDKEEAEEVVEEAVELAEELNSPVLAIAARFLLRALREGSSSSS
B37: il10ra_site1_normal_mot_a6c796b944619e241e020fd597ddb6da_0001_af2_000000092_0001_15_31_H_._HHH_b1_07083_0001_0000200016_0000001_0 (protein)
chain: SSSSSSDEEQRARALVRFAKLASNPEAAKITLEVALELARKLNDEELVEEIEELLEEYSSSSSSS

molecular target: il10ra, Q13651; assay: yeast display titration

Apparent Kd, inactive:
B1 no binding seen
B2 no binding seen
B3 no binding seen
B4 no binding seen
B5 no binding seen
B6 no binding seen
B7 no binding seen
B8 no binding seen
B9 no binding seen
B10 no binding seen
B11 no binding seen
B12 no binding seen
B13 no binding seen
B14 no binding seen
B15 no binding seen
B16 no binding seen
B17 no binding seen
B18 no binding seen
B19 no binding seen
B20 no binding seen
B21 no binding seen
B22 no binding seen
B23 no binding seen
B24 no binding seen
B25 no binding seen
B26 no binding seen
B27 no binding seen
B28 no binding seen
B29 no binding seen
B30 no binding seen
B31 no binding seen
B32 no binding seen
B33 no binding seen
B34 no binding seen
B35 no binding seen
B36 no binding seen
B37 no binding seen

Quoted at random: two entries already listed, in no set order.
Apparent Kd, inactive:
B32 no binding seen
B26 no binding seen
